Test results published in the supplement of paper PMC6411743.
± gives the standard deviation of the averaged measurements. The list shows a part of the results, in another mix than the full data. Small differences around the control level are noise.

By UniProt entry, the sequences of proteins in these tests, tags left out. Where a name states a change or a piece, a line headed by the entry shows the natural chain unless it says otherwise.
UniProt Q13426: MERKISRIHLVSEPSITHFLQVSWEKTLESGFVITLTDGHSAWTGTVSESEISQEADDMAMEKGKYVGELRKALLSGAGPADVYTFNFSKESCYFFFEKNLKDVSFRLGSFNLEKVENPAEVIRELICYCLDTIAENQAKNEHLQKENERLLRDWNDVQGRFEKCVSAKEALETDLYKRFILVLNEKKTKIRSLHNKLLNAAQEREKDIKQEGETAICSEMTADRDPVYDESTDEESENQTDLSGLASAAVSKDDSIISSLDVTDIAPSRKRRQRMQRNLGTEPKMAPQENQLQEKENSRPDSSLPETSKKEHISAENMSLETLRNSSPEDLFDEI
UniProt Q13884: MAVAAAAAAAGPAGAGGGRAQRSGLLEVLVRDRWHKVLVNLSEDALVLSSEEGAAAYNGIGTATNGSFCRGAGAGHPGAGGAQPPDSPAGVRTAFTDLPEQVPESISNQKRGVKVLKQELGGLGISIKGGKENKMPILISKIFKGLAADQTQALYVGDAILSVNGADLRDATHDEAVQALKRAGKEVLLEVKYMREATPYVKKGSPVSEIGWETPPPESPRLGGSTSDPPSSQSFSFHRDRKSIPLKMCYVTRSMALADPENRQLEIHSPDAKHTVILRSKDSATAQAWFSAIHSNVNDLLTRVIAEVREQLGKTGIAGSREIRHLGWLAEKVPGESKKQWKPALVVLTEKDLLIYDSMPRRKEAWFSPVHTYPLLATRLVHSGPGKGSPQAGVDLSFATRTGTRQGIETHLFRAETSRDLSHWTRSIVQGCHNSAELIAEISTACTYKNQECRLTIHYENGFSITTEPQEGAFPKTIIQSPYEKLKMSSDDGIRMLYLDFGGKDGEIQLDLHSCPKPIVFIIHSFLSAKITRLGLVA
UniProt Q14191, whole entry: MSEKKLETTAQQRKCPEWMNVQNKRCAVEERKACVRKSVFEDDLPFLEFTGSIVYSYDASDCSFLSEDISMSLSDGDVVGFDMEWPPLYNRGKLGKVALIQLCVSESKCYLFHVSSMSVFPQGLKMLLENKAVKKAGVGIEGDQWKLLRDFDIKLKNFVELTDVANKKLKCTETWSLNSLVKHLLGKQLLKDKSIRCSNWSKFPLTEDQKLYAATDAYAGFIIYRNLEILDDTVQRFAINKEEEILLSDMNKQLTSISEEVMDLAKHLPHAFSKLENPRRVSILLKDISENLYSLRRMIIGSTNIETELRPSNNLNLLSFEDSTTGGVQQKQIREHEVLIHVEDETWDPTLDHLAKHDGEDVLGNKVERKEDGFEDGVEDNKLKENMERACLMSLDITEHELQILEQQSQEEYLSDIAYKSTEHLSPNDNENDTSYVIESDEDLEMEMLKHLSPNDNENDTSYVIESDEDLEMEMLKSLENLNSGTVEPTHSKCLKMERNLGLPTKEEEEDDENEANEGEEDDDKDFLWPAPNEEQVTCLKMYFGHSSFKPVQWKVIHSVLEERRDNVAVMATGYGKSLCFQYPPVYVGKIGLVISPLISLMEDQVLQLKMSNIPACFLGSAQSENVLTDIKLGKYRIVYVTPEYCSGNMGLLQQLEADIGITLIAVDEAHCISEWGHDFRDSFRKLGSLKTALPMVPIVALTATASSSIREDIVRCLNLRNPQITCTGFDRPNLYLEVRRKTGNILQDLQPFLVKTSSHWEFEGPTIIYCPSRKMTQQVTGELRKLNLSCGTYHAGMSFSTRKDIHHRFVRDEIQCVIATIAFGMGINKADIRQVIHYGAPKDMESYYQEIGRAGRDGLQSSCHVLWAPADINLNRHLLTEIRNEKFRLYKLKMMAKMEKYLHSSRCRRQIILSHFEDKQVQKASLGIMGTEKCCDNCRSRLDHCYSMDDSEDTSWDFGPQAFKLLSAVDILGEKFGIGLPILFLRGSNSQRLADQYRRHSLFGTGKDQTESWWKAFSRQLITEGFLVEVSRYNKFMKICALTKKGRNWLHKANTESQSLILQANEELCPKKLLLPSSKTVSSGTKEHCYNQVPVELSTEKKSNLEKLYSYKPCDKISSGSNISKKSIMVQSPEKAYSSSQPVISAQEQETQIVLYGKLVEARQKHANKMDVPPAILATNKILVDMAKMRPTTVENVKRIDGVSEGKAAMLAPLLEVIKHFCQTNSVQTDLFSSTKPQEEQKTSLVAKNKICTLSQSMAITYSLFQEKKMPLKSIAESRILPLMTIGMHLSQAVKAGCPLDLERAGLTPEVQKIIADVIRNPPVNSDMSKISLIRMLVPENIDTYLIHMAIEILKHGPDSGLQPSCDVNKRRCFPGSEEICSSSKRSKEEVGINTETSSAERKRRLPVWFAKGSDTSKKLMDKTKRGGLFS
UniProt Q12888: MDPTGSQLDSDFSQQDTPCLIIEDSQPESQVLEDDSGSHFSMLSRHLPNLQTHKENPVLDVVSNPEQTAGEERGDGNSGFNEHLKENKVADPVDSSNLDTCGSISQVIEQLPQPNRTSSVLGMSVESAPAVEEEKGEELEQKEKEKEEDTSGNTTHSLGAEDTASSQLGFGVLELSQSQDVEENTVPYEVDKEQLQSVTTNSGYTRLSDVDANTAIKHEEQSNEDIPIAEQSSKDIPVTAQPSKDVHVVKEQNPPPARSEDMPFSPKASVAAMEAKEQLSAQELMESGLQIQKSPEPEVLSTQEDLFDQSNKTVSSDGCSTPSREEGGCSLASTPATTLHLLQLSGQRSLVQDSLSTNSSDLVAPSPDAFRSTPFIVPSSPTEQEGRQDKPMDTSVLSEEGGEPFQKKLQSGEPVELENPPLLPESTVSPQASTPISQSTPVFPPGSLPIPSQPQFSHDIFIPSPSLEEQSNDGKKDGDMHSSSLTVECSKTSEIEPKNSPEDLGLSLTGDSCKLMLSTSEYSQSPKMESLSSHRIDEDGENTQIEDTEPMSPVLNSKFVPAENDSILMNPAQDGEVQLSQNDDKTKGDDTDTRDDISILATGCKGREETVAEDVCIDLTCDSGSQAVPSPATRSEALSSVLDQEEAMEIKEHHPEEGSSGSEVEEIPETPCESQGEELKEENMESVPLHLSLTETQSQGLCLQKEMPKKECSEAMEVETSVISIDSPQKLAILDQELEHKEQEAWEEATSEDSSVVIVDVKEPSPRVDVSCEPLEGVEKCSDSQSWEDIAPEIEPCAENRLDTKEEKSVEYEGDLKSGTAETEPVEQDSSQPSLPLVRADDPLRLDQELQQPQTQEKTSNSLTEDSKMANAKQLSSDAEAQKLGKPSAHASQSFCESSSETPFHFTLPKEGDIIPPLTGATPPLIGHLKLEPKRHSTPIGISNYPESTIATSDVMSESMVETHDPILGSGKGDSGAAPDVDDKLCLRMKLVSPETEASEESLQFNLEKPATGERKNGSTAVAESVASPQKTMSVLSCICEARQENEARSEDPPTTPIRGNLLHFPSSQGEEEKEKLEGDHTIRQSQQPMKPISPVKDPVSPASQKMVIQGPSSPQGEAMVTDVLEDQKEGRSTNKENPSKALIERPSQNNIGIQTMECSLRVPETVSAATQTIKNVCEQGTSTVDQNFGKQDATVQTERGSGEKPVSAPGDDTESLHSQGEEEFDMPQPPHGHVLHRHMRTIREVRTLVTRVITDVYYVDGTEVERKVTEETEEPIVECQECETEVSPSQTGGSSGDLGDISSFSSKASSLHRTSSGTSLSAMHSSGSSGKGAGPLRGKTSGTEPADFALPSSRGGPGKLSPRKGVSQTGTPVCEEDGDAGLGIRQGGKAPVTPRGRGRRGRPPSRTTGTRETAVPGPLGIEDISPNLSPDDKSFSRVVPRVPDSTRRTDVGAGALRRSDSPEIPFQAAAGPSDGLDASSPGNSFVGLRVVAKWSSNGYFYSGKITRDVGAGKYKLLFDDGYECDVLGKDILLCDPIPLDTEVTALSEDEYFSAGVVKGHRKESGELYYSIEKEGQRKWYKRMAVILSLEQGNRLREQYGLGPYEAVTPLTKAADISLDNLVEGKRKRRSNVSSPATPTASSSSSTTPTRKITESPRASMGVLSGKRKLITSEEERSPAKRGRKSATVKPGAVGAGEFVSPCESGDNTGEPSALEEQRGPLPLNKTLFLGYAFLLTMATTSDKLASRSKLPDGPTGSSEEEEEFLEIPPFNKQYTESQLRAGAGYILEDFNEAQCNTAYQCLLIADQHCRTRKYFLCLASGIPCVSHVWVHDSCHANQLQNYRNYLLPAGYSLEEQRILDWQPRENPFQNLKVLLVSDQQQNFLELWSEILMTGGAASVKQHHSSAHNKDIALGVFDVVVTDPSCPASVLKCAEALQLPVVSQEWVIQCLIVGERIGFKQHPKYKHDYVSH
UniProt Q14258, whole entry: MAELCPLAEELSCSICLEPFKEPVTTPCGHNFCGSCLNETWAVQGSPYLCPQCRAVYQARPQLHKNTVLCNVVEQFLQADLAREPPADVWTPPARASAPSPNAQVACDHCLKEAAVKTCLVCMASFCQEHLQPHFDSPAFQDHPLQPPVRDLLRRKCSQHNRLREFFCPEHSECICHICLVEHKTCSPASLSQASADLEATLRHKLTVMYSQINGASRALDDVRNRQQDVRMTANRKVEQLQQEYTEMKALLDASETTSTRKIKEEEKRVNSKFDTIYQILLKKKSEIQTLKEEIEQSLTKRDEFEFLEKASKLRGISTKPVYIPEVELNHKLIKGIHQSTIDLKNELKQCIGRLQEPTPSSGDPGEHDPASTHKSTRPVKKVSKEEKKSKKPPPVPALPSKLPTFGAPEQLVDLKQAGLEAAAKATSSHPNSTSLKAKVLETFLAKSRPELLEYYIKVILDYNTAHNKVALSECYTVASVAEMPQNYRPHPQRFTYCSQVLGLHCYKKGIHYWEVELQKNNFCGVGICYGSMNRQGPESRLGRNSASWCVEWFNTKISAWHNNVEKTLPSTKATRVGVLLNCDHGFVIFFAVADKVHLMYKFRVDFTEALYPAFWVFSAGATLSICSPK
UniProt Q14019: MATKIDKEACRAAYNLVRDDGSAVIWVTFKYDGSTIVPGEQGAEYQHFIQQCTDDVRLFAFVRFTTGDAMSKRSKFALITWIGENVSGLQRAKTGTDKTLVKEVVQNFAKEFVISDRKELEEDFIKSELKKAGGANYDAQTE
UniProt Q13542: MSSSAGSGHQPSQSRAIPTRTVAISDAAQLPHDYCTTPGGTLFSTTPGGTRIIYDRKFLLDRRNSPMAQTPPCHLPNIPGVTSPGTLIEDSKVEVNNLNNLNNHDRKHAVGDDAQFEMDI
UniProt Q13464: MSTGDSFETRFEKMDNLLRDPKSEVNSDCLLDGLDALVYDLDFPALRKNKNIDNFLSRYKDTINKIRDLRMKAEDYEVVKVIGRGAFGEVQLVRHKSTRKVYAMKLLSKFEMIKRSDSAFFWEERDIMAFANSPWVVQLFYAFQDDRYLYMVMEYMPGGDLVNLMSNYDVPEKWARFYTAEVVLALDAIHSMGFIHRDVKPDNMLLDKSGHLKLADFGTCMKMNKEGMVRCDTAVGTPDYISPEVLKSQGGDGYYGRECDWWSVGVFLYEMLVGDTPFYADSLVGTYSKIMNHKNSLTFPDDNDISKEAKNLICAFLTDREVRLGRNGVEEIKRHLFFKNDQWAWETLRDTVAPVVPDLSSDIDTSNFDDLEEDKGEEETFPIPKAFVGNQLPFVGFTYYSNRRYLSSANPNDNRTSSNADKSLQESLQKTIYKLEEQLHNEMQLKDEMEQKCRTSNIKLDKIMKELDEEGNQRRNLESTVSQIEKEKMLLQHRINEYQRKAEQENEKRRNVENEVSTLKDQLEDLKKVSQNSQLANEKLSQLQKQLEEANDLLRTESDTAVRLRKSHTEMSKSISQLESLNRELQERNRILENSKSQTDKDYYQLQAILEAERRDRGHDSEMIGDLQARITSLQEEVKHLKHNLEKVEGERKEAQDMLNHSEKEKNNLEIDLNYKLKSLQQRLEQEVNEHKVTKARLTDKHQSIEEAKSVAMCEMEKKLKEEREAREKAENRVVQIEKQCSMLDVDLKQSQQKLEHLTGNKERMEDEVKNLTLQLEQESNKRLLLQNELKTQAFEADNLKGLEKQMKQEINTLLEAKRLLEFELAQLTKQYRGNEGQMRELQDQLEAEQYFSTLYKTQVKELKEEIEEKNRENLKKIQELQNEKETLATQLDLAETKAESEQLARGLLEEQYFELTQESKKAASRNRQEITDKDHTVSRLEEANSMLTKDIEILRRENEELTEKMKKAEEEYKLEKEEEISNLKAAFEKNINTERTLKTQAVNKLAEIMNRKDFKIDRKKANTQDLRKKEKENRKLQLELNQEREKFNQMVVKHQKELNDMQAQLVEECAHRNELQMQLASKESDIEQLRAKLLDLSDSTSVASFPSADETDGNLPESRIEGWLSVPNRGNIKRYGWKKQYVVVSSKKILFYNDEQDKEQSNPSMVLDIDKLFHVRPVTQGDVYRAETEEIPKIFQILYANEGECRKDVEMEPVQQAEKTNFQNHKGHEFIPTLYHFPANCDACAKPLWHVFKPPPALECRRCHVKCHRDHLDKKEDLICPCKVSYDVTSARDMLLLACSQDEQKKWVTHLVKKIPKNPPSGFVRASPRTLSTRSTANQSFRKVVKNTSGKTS

Compound: Nc1ncnc2c1ncn2[C@@H]1O[C@H](COP(=O)(O)OP(=O)(O)NP(=O)(O)O)[C@@H](O)[C@H]1O [adenylyl imidodiphosphate]
Test: NP40-soluble protein abundance relative to vehicle (solubility fold change) (ratio); higher = more soluble protein in presence of AMP-PNP
Outline: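 Eight concentrations, 0.1 to 10 mM, were tested on Jurkat crude lysate for 10 min at room temperature and then 3 min at 37 °C, in three independent experiments. The lysate was solubilised with 0.8% NP40 and benzonase, ultracentrifuged, and the supernatant TMT-labelled for LC-MS/MS. Each value is the fold change against the detergent-processed vehicle in its own replicate, from vsn-normalised intensities.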

Target	NP40-soluble protein abundance (concentration: 0.1mM)	NP40-soluble protein abundance (concentration: 0.5mM)
UniProt Q15036 and related entries	1.012 ± 0.0058	1.05 ± 0.033
UniProt Q12931 and related entries	1 ± 0.021	1.01 ± 0.054
XRCC4 (UniProt Q13426)	1.05 ± 0.056	1.129 ± 0.01
UniProt Q12802 and related entries	0.978 ± 0.035	0.989 ± 0.042
UniProt Q13884 and related entries	1.01 ± 0.021	0.994 ± 0.016
UniProt Q13615 and related entries	1.03 ± 0.023	1.01 ± 0.024
WRN (UniProt Q14191)	1.04 ± 0.017	1.03 ± 0.045
UniProt Q14865	0.997 ± 0.015	1 ± 0.045
UniProt Q13164	1.008 ± 0.01	0.964 ± 0.026
TARBP1 (UniProt Q13395)	1.04 ± 0.051	1.01 ± 0.091
GALNT1 (UniProt Q10472)	0.991 ± 0.032	0.971 ± 0.038
UniProt Q12888 and related entries	0.9661 ± 0.0042	0.99 ± 0.059
FKBP5 (UniProt Q13451)	0.986 ± 0.028	1.007 ± 0.01
UniProt Q13428-3|Q13428-7|E7ETY2 and related entries	1 ± 0.022	1.06 ± 0.096
PPP2R5D (UniProt Q14738)	0.976 ± 0.022	0.998 ± 0.02
TFDP1 (UniProt Q14186)	1.01 ± 0.034	0.986 ± 0.019
UniProt Q13561 and related entries	0.991 ± 0.053	1 ± 0.056
UniProt Q08J23 and related entries	1 ± 0.012	0.9938 ± 0.0082
UniProt Q08AM6 and related entries	1.01 ± 0.047	0.989 ± 0.056
GOLGA3 (UniProt Q08378)	1.01 ± 0.037	1.02 ± 0.059
UniProt Q14596 and related entries	0.993 ± 0.013	0.9976 ± 0.0094

Target	NP40-soluble protein abundance (concentration: 0.1mM)	NP40-soluble protein abundance (concentration: 0.5mM)
UniProt Q13885	0.98 ± 0.026	1.02 ± 0.062
GAMT (UniProt Q14353)	1.02 ± 0.019	1.01 ± 0.017
UniProt Q14814 and related entries	0.981 ± 0.026	0.99 ± 0.048
HDAC1 (UniProt Q13547)	0.966 ± 0.052	0.969 ± 0.03
UniProt Q14257 and related entries	0.999 ± 0.046	1.01 ± 0.023
UniProt Q13625 and related entries	0.976 ± 0.017	0.97 ± 0.014
IK (UniProt Q13123)	0.999 ± 0.026	1.03 ± 0.049
LAGE3 (UniProt Q14657)	0.999 ± 0.039	0.973 ± 0.049
IQGAP2 (UniProt Q13576)	0.967 ± 0.041	0.968 ± 0.059
MORF4L2 (UniProt Q15014)	0.995 ± 0.02	1.01 ± 0.043
TFDP2 (UniProt Q14188)	1 ± 0.017	0.998 ± 0.026
UniProt Q12904	1.02 ± 0.082	1.03 ± 0.051
UniProt Q13243	1.04 ± 0.02	1.09 ± 0.04
UniProt Q14444 and related entries	1.05 ± 0.074	1.06 ± 0.058
UniProt Q13191 and related entries	0.993 ± 0.033	0.992 ± 0.017
UNC119 (UniProt Q13432)	0.979 ± 0.016	1.01 ± 0.042
CUL1 (UniProt Q13616)	1 ± 0.012	0.996 ± 0.027
UniProt Q15029 and related entries	1.05 ± 0.018	1.03 ± 0.049
BLMH (UniProt Q13867)	1.08 ± 0.086	0.981 ± 0.14
PPID (UniProt Q08752)	0.9997 ± 0.0078	0.984 ± 0.014
KEAP1 (UniProt Q14145)	1.022 ± 0.0079	1.04 ± 0.024

Three entries picked at random from those above, as already listed:
Target	NP40-soluble protein abundance (concentration: 0.1mM)	NP40-soluble protein abundance (concentration: 0.5mM)
PPID (UniProt Q08752)	0.9997 ± 0.0078	0.984 ± 0.014
UniProt Q15029 and related entries	1.05 ± 0.018	1.03 ± 0.049
UniProt Q14444 and related entries	1.05 ± 0.074	1.06 ± 0.058

Further records follow:

Target	NP40-soluble protein abundance (concentration: 0.1mM)	NP40-soluble protein abundance (concentration: 0.5mM)
UniProt Q13438 and related entries	0.9829 ± 0.0067	0.975 ± 0.016
UniProt Q14CX7	1.02 ± 0.025	1.04 ± 0.022
MLEC (UniProt Q14165)	1.01 ± 0.023	1.026 ± 0.01
TRIM25 (UniProt Q14258)	0.982 ± 0.067	1 ± 0.05
UniProt Q13033-2	0.9796 ± 0.005	0.998 ± 0.058
COTL1 (UniProt Q14019)	0.957 ± 0.035	1.03 ± 0.053
URB2 (UniProt Q14146)	0.993 ± 0.015	0.973 ± 0.03
PAFAH1B3 (UniProt Q15102)	1.01 ± 0.062	1.03 ± 0.049
UniProt Q147X3 and related entries	1.01 ± 0.015	0.988 ± 0.016
EIF4EBP2 (UniProt Q13542)	1 ± 0.029	1.01 ± 0.019
EIF2B5 (UniProt Q13144)	1 ± 0.021	0.9802 ± 0.0087
UniProt Q14498 and related entries	1.01 ± 0.027	1.02 ± 0.016
PAK2 (UniProt Q13177)	1 ± 0.018	1.007 ± 0.0037
UniProt Q15042	1 ± 0.027	0.994 ± 0.015
PDAP1 (UniProt Q13442)	0.972 ± 0.058	1.08 ± 0.13
ITK (UniProt Q08881)	0.988 ± 0.013	0.957 ± 0.077
ROCK1 (UniProt Q13464)	0.977 ± 0.038	1.01 ± 0.06
UniProt Q13838 and related entries	0.99 ± 0.085	0.879 ± 0.061
UniProt Q13137 and related entries	0.986 ± 0.024	0.997 ± 0.051
